The assay concerns the target T1, mouse CCRL2 (chemokine (CC motif) receptor-like 2), untagged (mouse) (UniProt O35457).
T1 sequence (looked up): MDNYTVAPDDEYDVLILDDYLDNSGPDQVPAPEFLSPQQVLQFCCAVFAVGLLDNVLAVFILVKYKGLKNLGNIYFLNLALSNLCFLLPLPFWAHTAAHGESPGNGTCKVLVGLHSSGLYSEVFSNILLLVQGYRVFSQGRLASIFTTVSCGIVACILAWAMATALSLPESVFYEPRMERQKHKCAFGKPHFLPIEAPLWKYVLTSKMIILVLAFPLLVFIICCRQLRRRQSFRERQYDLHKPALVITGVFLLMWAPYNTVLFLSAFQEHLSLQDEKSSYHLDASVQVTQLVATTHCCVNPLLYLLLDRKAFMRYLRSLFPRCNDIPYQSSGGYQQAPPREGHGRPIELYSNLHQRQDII
Kind of assay: flow cytometry on peritoneal mast cells; chemerin blocks the staining by the anti-mCCRL2 mAb (legend: BZ2E3; paragraph 140: BZ5B8) [panel A]. On the technique in general: A flow cytometer gives signals particle by particle.

The results in this text go back to patent publication US20100092974A1, “METHODS FOR SCREENING FOR MODULATORS OF CCRL2” (The Board of Trustees of the Leland Stanford Junior …, priority 2008, published 2010).

No constants are given. Whether binding was seen depends on the method and setting. Some binding calls cover weakened binding; strength is not graded here. Where a sequence is shown, tags or fusion partners need not be part of it.

B1: human chemerin (as used to block anti-mCCRL2 staining, FIG. 6 Panel A) (ligand, UniProt Q99969 21-157, looked up)
chain: ELTEAQRRGLQVALEEFHKHPPVQWAFQETSVESAVDTPFPAGIFVRLEFKLQQTSCRKRDWKKPECKVRPNGRKRKCLACIKLGSEDKVLGRLVHCPIETQVLREAEEHQETQCLRVQRAGEDPHSFYFPGQFAFS
For B1, the binding result was “binds”.
